Assay: peptide synthesis
Conditions: lipidation step, RP HPLC (260 nm)

A14E, B25H, B29K(N^εEicosanedioyl-gGlu-OEG-OEG), desB27, desB30 human insulin
crude LC-MS purity: 61.7%
final LC-MS purity: 100% purity

Source: patent publication US8637647 (dated 2014)
